Reference: PubChem BioAssay AID1259405 (NCATS, 2018)
Aim: 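Mouse-designed siRNAs used to find CHO productivity engineering targets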 (primary screen). Cell system: Chinese hamster CHO-K1 ovary cells with stable secreted eGFP expression. Reagents: single siRNA against mouse genes, 0.8 pmol siRNA per well (2 µl of 400 nM stock). Duration: 3 days. Measured: 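Percent of the per-plate non-targeting control median for intracellular GFP per well by laser scanning cytometry and for cell viability by ATP luminescence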. Reading the numbers: GFP, % of control: higher = more GFP per well, higher productivity; viability (ATP), % of control: higher = more viable cells (more ATP). Active means: 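a knock-down is called active if GFP reaches 120% or more of non-targeting control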.
Shown is a random part of about 50,000 reagents. In the full data, about 4,000 (8%) are marked active. 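Mouse siRNA library applied to hamster cells; one well for each siRNA.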 Entries without a mark were called inactive. The numbers tell different reagents against one gene apart. No sequences are given here.

{"target": "Or10a49", "reagent no.": 1, "GFP, % of control": 94.9, "viability (ATP), % of control": 75}
{"target": "Or10a49", "reagent no.": 2, "GFP, % of control": 67.9, "viability (ATP), % of control": 88.4}
{"target": "Or10a49", "reagent no.": 3, "GFP, % of control": 55.8, "viability (ATP), % of control": 67.8}
{"target": "3110070M22Rik", "reagent no.": 1, "GFP, % of control": 107, "viability (ATP), % of control": 95.9}
{"target": "3110070M22Rik", "reagent no.": 2, "GFP, % of control": "136 (active)", "viability (ATP), % of control": 109}
{"target": "3110070M22Rik", "reagent no.": 3, "GFP, % of control": 78, "viability (ATP), % of control": 128}
{"target": "Bmal1", "reagent no.": 1, "GFP, % of control": 112, "viability (ATP), % of control": 121}
{"target": "Bmal1", "reagent no.": 2, "GFP, % of control": 50, "viability (ATP), % of control": 68.3}
{"target": "Bmal1", "reagent no.": 3, "GFP, % of control": "162 (active)", "viability (ATP), % of control": 111}
{"target": "Phyh", "reagent no.": 1, "GFP, % of control": 71.9, "viability (ATP), % of control": 36.4}
{"target": "Phyh", "reagent no.": 2, "GFP, % of control": 48.2, "viability (ATP), % of control": 52.9}
{"target": "Phyh", "reagent no.": 3, "GFP, % of control": 56.4, "viability (ATP), % of control": 78}
{"target": "Nfatc2ip", "reagent no.": 1, "GFP, % of control": 102, "viability (ATP), % of control": 89.9}
{"target": "Nfatc2ip", "reagent no.": 2, "GFP, % of control": 97, "viability (ATP), % of control": 89.9}
{"target": "Nfatc2ip", "reagent no.": 3, "GFP, % of control": 119, "viability (ATP), % of control": 84.5}
{"target": "Rtp2", "reagent no.": 1, "GFP, % of control": 77.4, "viability (ATP), % of control": 87.7}
{"target": "Rtp2", "reagent no.": 2, "GFP, % of control": 75.1, "viability (ATP), % of control": 76.9}
{"target": "Rtp2", "reagent no.": 3, "GFP, % of control": 71, "viability (ATP), % of control": 71.3}
